{"source": "PubChem BioAssay AID1259254 (NCATS, 2017)", "purpose": "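Finding genes that stop cells copying their DNA twice in one cycle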 (primary screen)", "system": "human HCT116 colorectal cancer cells", "knock-down reagent": "single siRNA against human genes", "timing": "3 days", "detection": "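Imaged Hoechst DNA stain sorts each cell into a cycle phase by DNA amount; per plate, G2 fraction set to 0% for non-targeting and 100% for GMNN siRNA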", "direction": "G2 robust z-score and G2 cells, % of GMNN control: higher = more G2 cells, more excess DNA replication", "hit rule": "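Active siRNAs have a G2 robust z of 5 or more median absolute deviations over the median, which in these data means about 38% or higher of GMNN control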", "note": "The deposit covers about 59,000 reagents; this is a random part of them. About 1,550 of all reagents (2.6%) count as active. 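G2 share is only a proxy for re-replication; each gene was hit by three separate siRNAs, and active genes were retested.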 A number with no mark means an inactive call. Further read-outs or replicates are left out here. The record does not give: the amount of reagent."}
{"target gene": "SLC38A12", "PubChem SID": "SID160742361", "G2 robust z-score": "7.44 (active)", "G2 cells, % of GMNN control": 55.3}
{"target gene": "SLC38A12", "PubChem SID": "SID160742363", "G2 robust z-score": 0.655, "G2 cells, % of GMNN control": 7.58}
{"target gene": "SLC38A12", "PubChem SID": "SID160742364", "G2 robust z-score": 2.5, "G2 cells, % of GMNN control": 20.5}
{"target gene": "NDUFB4 (NADH:ubiquinone oxidoreductase subunit B4)", "PubChem SID": "SID160731279", "G2 robust z-score": 1.16, "G2 cells, % of GMNN control": 11.1}
{"target gene": "NDUFB4 (NADH:ubiquinone oxidoreductase subunit B4)", "PubChem SID": "SID160777868", "G2 robust z-score": -0.816, "G2 cells, % of GMNN control": -2.77}
{"target gene": "NDUFB4 (NADH:ubiquinone oxidoreductase subunit B4)", "PubChem SID": "SID160777870", "G2 robust z-score": -0.228, "G2 cells, % of GMNN control": 1.37}
{"target gene": "NBEAL2 (neurobeachin like 2)", "PubChem SID": "SID160735747", "G2 robust z-score": 0.506, "G2 cells, % of GMNN control": 6.53}
{"target gene": "NBEAL2 (neurobeachin like 2)", "PubChem SID": "SID160735748", "G2 robust z-score": 0.468, "G2 cells, % of GMNN control": 6.26}
{"target gene": "NBEAL2 (neurobeachin like 2)", "PubChem SID": "SID160735749", "G2 robust z-score": -0.167, "G2 cells, % of GMNN control": 1.79}
{"target gene": "FNBP1L (formin binding protein 1 like)", "PubChem SID": "SID160742378", "G2 robust z-score": 0.0937, "G2 cells, % of GMNN control": 3.63}
{"target gene": "FNBP1L (formin binding protein 1 like)", "PubChem SID": "SID160742379", "G2 robust z-score": 0.81, "G2 cells, % of GMNN control": 8.66}
{"target gene": "FNBP1L (formin binding protein 1 like)", "PubChem SID": "SID160742380", "G2 robust z-score": -0.235, "G2 cells, % of GMNN control": 1.31}
{"target gene": "TRAPPC9 (trafficking protein particle complex subunit 9)", "PubChem SID": "SID160751322", "G2 robust z-score": 2.39, "G2 cells, % of GMNN control": 19.8}
{"target gene": "TRAPPC9 (trafficking protein particle complex subunit 9)", "PubChem SID": "SID160751323", "G2 robust z-score": 0.751, "G2 cells, % of GMNN control": 8.25}
{"target gene": "TRAPPC9 (trafficking protein particle complex subunit 9)", "PubChem SID": "SID160751324", "G2 robust z-score": 0.221, "G2 cells, % of GMNN control": 4.52}

Records above whose gene name starts with N or n:
{"target gene": "NDUFB4 (NADH:ubiquinone oxidoreductase subunit B4)", "PubChem SID": "SID160731279", "G2 robust z-score": 1.16, "G2 cells, % of GMNN control": 11.1}
{"target gene": "NDUFB4 (NADH:ubiquinone oxidoreductase subunit B4)", "PubChem SID": "SID160777868", "G2 robust z-score": -0.816, "G2 cells, % of GMNN control": -2.77}
{"target gene": "NDUFB4 (NADH:ubiquinone oxidoreductase subunit B4)", "PubChem SID": "SID160777870", "G2 robust z-score": -0.228, "G2 cells, % of GMNN control": 1.37}
{"target gene": "NBEAL2 (neurobeachin like 2)", "PubChem SID": "SID160735747", "G2 robust z-score": 0.506, "G2 cells, % of GMNN control": 6.53}
{"target gene": "NBEAL2 (neurobeachin like 2)", "PubChem SID": "SID160735748", "G2 robust z-score": 0.468, "G2 cells, % of GMNN control": 6.26}
{"target gene": "NBEAL2 (neurobeachin like 2)", "PubChem SID": "SID160735749", "G2 robust z-score": -0.167, "G2 cells, % of GMNN control": 1.79}

The listing continues.
{"target gene": "ZC3H11D (zinc finger CCCH-type containing 11D)", "PubChem SID": "SID160759777", "G2 robust z-score": -0.186, "G2 cells, % of GMNN control": 1.66}
{"target gene": "ZC3H11D (zinc finger CCCH-type containing 11D)", "PubChem SID": "SID160759778", "G2 robust z-score": -0.279, "G2 cells, % of GMNN control": 1}
{"target gene": "ZC3H11D (zinc finger CCCH-type containing 11D)", "PubChem SID": "SID160759779", "G2 robust z-score": -0.215, "G2 cells, % of GMNN control": 1.45}
{"target gene": "MRPL55 (mitochondrial ribosomal protein L55)", "PubChem SID": "SID160724795", "G2 robust z-score": 1.52, "G2 cells, % of GMNN control": 13.6}
{"target gene": "MRPL55 (mitochondrial ribosomal protein L55)", "PubChem SID": "SID160732440", "G2 robust z-score": -0.591, "G2 cells, % of GMNN control": -1.19}
{"target gene": "MRPL55 (mitochondrial ribosomal protein L55)", "PubChem SID": "SID160756731", "G2 robust z-score": 1.41, "G2 cells, % of GMNN control": 12.9}
{"target gene": "SIGLEC11 (sialic acid binding Ig like lectin 11)", "PubChem SID": "SID160754908", "G2 robust z-score": -0.774, "G2 cells, % of GMNN control": -2.48}
{"target gene": "SIGLEC11 (sialic acid binding Ig like lectin 11)", "PubChem SID": "SID160754910", "G2 robust z-score": -1.26, "G2 cells, % of GMNN control": -5.93}
{"target gene": "SIGLEC11 (sialic acid binding Ig like lectin 11)", "PubChem SID": "SID160754911", "G2 robust z-score": "5.3 (active)", "G2 cells, % of GMNN control": 40.3}
{"target gene": "GSDMB (gasdermin B)", "PubChem SID": "SID160744571", "G2 robust z-score": -0.667, "G2 cells, % of GMNN control": -1.72}
{"target gene": "GSDMB (gasdermin B)", "PubChem SID": "SID160744572", "G2 robust z-score": -0.589, "G2 cells, % of GMNN control": -1.18}
{"target gene": "GSDMB (gasdermin B)", "PubChem SID": "SID160744573", "G2 robust z-score": -0.0711, "G2 cells, % of GMNN control": 2.47}
{"target gene": "MAPKBP1 (mitogen-activated protein kinase binding protein 1)", "PubChem SID": "SID160734890", "G2 robust z-score": -0.7, "G2 cells, % of GMNN control": -1.95}
{"target gene": "MAPKBP1 (mitogen-activated protein kinase binding protein 1)", "PubChem SID": "SID160734900", "G2 robust z-score": 0.17, "G2 cells, % of GMNN control": 4.16}
{"target gene": "MAPKBP1 (mitogen-activated protein kinase binding protein 1)", "PubChem SID": "SID160734909", "G2 robust z-score": -0.341, "G2 cells, % of GMNN control": 0.567}
